Data: patent US5464935 (dated 1995)

How the values were obtained:
[1] = general procedure: Boc solid-phase peptide synthesis; 4-methylbenzhydrylamine resin; dicyclohexylcarbodiimide and hydroxybenzotriazole; conditions: whole synthesis, scale 0.5 mmol
[2] = general procedure: Boc solid-phase peptide synthesis; 4-methyl benzhydrylamine resin; dicyclohexylcarbodiimide and hydroxybenzotriazole; conditions: whole synthesis, scale 0.5 mmol

Substance: Asparaginyl-lysyl-threonyl-tryptophyl-threonyl-tryptophyl-valine-amide
- isolated mass [1]: 92 mg

Substance: Lysyl-threonyl-tryptophyl-threonyl-tryptophyl-valine-amide
- crude mass [2]: 324 mg
- isolated mass [2]: 128 mg

Substance: Threonyl-tryptophyl-threonyl-tryptophyl-valine-amide
- crude mass [2]: 287 mg
- isolated mass [2]: 126 mg
